Assay results taken from US5455161A, “Method for the monitoring of multiple anticancer drug resistance” (priority 1992, dated 1995).
Where two headings read alike, the source gives them in different places.

Columns and labels:
AA8 cells = assay: ODC (ornithine decarboxylase activity) assay of cellular drug sensitivity, wild type AA8 cells; format: cell-based, Chinese hamster
Procedure: (§1) The protein determinations were carried out according to the method of Bradford (Anal.Biochem. 72, 248-54, 1976), using lysozyme, triple crystallization and dialysis, as a standard.
Based on the above results discovered by the Inventors, further tests were done on the correlation between the ornithine decarboxylase activity and the resistance to cytotoxic agents or cellular sensitivity. Monolayers of parental AA8 and multidrug resistant T19 cells grown for 4 days at 37° C., were exposed to various concentrations of the antimitotic agent colchinine, for 6 hours, 18 hours and 48 hours and then the activity of ornithine decarboxylase was determined. […] This appears in a clear manner from the attached FIG. 3A. As can be noticed, even a short treatment of only 6 hours with colchinine, was sufficient to detect the sensitivity of AA8 cells and the high level of multi-drug resistance in T19 cells to colchinine.
In the same manner, this assay was tested with various anticancer drugs of various structure and distinct mechanisms of action. The following cytotoxic agents were tested: vinca alkaloids, anthracyclines, epipodophyllotoxins, actinomycin D and antifolates. Typical doseresponse curves of decreasing the ornithine decarboxylase activity versus increasing concentrations of some chemotherapeutic agents, are presented in FIG. 5A through FIG. 5I and in the following Table 1.

T19 cells = assay: ODC (ornithine decarboxylase activity) assay of drug resistance, multidrug resistant T19 cells; format: cell-based, Chinese hamster; details: incubation time 18 hr; mean of two to four independent experiments
Procedure: as §1
Monolayers of parental AA8 and multidrug resistant T19 cells grown for 4 days at 37° C., were exposed to various concentrations of the antimitotic agent colchinine, for 6 hours, 18 hours and 48 hours and then the activity of ornithine decarboxylase was determined.
In the same manner, this assay was tested with various anticancer drugs of various structure and distinct mechanisms of action. The following cytotoxic agents were tested: vinca alkaloids, anthracyclines, epipodophyllotoxins, actinomycin D and antifolates.

## COc1cc2c(c(OC)c1OC)-c1ccc(OC)c(=O)cc1[C@@H](NC(C)=O)CC2 [Colchicine]
AA8 cells; incubation time 18 hr, mean of two to four independent experiments, read-out: IC50 (ODC assay) AA8
  IC50: 404 nM
AA8 cells; several independent experiments over 1 year, S.E., read-out: mean IC50 (reduction of 50% in the ornithine decarboxylase)
  IC50: 404 nM
T19 cells
  IC50: 13800 nM
